The other results are listed elsewhere or left out.
The targets below were run with CC(C)(O)CC(=O)NCCn1ccc2ncnc(Nc3ccc(Oc4cccc(C(F)(F)F)c4)c(Cl)c3)c21 (assay: log2 fold change, soluble protein after heating vs DMSO (PISA); higher = thermal stabilisation; K562 cells, 10 uM, 30 min; active = over 0.2 and 3.5 SD of the protein, either way, in both replicates (recomputed)).
How it was run: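 K562 cells at 2×10^6 cells/mL were treated for 30 min with 10 μM compound, and aliquots were heated for 3 min over 48°C-58°C before pooling. Extraction used PBS with 0.5% NP-40 at 4°C, and soluble protein was the supernatant after 21,000xg for 90 min, measured by TMTpro 16plex LC-MS/MS with channel sums equalised. Thermal stability values, relative to control samples and from duplicates, are log2 fold changes.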

By UniProt entry, the sequences of proteins in these tests, tags left out. Where a name states a change or a piece, a line headed by the entry shows the natural chain unless it says otherwise.
UniProt O94782: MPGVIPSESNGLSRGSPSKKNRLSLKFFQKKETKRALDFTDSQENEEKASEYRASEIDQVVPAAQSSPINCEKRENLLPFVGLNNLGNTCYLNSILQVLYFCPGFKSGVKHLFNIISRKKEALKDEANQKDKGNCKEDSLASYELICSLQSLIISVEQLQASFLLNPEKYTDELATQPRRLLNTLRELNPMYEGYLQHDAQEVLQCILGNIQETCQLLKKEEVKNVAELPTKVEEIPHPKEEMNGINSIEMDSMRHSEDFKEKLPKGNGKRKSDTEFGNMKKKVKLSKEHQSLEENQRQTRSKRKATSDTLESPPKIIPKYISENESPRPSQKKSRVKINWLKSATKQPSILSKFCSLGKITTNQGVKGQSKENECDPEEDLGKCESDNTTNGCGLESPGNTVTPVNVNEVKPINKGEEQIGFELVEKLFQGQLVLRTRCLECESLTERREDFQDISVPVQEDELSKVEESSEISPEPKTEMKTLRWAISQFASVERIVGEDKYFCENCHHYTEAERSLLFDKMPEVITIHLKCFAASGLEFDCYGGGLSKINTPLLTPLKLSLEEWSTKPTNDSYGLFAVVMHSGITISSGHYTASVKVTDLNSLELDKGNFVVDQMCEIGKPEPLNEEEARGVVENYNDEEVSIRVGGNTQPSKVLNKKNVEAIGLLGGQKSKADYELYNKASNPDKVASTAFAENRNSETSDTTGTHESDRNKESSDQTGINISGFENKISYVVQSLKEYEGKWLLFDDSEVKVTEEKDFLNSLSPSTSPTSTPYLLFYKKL
UniProt Q08AM6: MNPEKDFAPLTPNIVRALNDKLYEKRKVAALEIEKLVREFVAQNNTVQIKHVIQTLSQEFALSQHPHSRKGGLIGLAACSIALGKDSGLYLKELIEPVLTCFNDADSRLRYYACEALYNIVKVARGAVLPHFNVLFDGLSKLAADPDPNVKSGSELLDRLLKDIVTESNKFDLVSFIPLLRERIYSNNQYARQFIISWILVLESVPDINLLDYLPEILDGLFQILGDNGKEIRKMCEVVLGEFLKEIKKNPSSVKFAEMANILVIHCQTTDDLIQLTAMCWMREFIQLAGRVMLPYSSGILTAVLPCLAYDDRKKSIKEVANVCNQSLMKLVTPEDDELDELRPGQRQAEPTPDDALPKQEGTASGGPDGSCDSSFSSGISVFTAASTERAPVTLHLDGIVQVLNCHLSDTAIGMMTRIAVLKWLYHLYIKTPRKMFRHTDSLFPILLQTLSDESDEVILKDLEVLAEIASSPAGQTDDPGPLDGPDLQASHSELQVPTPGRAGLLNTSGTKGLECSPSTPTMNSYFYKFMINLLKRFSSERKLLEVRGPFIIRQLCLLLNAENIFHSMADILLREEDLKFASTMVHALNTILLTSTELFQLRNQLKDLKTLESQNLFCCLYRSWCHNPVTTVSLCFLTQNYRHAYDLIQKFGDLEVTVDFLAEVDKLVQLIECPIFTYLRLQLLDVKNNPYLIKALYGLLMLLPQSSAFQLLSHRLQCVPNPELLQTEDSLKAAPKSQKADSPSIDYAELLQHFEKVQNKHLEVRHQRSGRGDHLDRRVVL
UniProt P50552: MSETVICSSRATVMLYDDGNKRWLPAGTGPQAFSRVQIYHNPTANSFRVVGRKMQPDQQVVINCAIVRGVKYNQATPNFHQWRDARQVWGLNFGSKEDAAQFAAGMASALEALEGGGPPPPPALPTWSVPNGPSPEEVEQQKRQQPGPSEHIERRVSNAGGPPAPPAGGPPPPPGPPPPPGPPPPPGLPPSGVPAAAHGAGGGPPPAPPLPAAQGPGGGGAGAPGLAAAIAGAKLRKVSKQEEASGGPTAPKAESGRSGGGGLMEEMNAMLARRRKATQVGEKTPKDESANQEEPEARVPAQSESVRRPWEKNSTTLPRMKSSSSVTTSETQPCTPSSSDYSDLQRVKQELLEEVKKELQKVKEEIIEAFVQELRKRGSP
UniProt Q9BZL1: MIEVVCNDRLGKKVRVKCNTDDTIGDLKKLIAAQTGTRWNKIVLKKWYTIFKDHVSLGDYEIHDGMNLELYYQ
UniProt Q96RL1: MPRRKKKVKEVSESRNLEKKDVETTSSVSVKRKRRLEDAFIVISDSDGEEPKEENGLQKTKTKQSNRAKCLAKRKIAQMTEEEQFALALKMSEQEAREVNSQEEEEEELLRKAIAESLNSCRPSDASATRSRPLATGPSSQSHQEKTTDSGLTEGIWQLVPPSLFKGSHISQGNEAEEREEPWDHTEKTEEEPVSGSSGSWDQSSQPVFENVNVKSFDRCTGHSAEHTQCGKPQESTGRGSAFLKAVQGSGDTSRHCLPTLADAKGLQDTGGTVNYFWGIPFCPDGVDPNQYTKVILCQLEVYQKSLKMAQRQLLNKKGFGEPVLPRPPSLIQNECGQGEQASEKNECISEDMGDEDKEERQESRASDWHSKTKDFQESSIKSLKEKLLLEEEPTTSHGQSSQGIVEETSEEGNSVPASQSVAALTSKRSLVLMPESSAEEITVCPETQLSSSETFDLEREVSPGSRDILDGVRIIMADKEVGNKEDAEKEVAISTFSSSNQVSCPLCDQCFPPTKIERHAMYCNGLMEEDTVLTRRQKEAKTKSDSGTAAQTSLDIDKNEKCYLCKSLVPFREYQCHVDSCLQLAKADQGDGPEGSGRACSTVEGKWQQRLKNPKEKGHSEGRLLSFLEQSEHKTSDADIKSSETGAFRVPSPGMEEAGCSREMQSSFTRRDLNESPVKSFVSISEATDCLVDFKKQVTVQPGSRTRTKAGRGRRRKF
UniProt Q96K76: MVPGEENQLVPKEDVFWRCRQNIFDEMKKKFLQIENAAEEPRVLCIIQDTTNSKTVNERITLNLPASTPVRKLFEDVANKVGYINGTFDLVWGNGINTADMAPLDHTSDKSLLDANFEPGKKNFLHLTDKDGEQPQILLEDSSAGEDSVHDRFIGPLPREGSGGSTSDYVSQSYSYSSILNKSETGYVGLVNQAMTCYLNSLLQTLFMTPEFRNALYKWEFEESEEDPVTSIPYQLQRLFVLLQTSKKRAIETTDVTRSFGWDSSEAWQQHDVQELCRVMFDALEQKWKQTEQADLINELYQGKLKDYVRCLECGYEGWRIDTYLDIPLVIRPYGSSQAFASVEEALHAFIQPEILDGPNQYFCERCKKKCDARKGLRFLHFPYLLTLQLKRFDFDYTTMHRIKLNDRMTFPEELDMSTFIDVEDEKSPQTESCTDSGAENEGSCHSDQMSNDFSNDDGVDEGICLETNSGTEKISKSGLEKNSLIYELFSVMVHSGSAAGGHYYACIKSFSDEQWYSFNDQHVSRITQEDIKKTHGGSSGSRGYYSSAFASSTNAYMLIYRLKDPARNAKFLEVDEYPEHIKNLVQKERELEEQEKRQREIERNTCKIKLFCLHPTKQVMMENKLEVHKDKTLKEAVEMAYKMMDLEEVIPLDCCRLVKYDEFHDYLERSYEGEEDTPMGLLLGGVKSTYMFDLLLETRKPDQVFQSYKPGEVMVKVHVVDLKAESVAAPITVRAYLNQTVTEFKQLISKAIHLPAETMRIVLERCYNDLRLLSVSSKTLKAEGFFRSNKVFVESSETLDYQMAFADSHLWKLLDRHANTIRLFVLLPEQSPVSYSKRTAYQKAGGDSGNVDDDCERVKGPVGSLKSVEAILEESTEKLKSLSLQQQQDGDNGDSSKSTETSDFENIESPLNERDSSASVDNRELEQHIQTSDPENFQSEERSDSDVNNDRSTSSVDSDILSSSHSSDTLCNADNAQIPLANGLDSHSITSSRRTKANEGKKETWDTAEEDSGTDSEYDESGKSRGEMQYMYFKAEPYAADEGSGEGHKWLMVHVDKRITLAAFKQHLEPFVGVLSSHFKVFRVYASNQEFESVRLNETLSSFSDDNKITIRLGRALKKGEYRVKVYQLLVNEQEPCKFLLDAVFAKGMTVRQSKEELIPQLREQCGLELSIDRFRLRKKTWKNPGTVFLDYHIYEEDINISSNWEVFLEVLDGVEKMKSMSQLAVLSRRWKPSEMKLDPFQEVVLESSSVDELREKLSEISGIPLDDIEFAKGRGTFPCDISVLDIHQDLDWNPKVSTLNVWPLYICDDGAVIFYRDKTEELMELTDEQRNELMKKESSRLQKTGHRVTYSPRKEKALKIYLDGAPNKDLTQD
UniProt Q9P2Y5: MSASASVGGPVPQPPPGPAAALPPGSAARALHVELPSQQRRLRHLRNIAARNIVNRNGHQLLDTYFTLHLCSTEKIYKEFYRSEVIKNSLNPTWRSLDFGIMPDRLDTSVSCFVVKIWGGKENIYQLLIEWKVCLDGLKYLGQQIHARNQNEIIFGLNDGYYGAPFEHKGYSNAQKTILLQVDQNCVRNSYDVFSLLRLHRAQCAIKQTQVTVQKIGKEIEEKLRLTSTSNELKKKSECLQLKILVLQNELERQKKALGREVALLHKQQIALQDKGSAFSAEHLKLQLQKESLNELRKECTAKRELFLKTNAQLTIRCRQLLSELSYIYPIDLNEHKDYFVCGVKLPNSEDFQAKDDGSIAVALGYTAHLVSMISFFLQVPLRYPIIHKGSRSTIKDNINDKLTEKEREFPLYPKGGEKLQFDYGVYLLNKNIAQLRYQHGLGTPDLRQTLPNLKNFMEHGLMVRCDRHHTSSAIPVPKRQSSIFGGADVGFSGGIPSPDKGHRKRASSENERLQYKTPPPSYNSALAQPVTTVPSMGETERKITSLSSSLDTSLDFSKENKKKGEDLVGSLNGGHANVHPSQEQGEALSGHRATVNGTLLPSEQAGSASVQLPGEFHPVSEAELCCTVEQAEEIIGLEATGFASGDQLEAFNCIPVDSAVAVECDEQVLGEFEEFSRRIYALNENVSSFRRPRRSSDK
UniProt O14949: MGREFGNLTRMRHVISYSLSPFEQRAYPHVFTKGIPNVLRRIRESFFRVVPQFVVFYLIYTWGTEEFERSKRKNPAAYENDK
UniProt Q92575: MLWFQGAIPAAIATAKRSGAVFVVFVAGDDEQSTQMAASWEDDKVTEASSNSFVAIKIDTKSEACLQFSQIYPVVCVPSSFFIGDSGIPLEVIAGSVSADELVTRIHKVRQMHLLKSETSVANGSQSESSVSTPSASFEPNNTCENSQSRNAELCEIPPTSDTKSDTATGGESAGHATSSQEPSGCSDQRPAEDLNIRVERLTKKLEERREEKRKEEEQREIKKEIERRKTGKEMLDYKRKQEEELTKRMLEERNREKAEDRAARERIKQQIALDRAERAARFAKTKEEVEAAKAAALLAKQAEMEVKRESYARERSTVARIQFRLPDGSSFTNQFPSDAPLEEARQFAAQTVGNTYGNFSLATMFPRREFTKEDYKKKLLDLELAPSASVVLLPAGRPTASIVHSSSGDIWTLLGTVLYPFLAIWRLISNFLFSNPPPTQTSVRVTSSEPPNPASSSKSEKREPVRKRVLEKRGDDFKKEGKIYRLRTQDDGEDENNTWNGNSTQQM
UniProt Q9P0L0: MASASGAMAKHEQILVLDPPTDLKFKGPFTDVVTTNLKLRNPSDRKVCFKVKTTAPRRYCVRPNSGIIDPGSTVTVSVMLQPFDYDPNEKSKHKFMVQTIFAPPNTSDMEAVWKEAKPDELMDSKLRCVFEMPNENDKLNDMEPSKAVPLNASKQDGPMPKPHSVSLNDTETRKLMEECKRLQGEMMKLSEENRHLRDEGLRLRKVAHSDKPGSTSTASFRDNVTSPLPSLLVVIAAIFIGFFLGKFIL
UniProt P06132: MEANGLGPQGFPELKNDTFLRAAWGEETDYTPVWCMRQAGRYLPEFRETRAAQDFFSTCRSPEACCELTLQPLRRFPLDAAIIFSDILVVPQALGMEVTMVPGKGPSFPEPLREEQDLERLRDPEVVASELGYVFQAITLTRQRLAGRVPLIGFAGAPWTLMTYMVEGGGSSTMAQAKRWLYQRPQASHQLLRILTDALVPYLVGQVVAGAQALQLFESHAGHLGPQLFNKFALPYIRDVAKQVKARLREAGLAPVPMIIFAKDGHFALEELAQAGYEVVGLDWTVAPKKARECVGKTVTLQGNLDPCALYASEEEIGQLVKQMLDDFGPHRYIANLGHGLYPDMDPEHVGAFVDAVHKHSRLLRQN
UniProt Q70CQ3: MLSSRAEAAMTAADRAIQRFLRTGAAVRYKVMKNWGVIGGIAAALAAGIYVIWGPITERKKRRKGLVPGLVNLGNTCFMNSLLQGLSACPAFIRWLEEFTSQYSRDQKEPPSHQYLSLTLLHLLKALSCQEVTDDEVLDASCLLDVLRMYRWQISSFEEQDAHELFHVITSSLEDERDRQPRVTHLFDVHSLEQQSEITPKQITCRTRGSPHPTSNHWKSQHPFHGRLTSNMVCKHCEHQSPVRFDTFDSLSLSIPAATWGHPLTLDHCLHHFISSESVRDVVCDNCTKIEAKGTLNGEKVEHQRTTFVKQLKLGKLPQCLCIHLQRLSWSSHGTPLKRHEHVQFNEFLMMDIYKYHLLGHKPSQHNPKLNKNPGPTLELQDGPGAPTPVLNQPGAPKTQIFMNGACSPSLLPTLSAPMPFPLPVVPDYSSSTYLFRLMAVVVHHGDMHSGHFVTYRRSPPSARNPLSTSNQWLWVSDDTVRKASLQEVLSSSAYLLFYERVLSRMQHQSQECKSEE

log2 fold change, inactive:
UBQLN2 (UniProt Q9UHD9) 0.001
UQCC1 (UniProt Q9NVA1) 0.061
USP1 (UniProt O94782) -0.037
UCK1 (UniProt Q9HA47) -0.156
UCHL3 (UniProt P15374) -0.008
VAC14 (UniProt Q08AM6) -0.034
UTP15 (UniProt Q8TED0) 0.058
VAMP8 (UniProt Q9BV40) -0.023
VASP (UniProt P50552) -0.137
URGCP (UniProt Q8TCY9) -0.084
UBL5 (UniProt Q9BZL1) -0.001
UIMC1 (UniProt Q96RL1) 0.169
USP47 (UniProt Q96K76) 0.005
UNC13D isoform 3 (UniProt Q70J99) -0.025
UNC45A (UniProt Q9H3U1) -0.07
UVRAG (UniProt Q9P2Y5) -0.041
URI1 isoform 4 (UniProt O94763) -0.247
VAMP4 (UniProt O75379) 0.007
UQCRQ (UniProt O14949) 0.044
UBR7 (UniProt Q8N806) 0.055
UPF1 (UniProt Q92900) 0.01
UFC1 (UniProt Q9Y3C8) -0.005
UBE3C (UniProt Q15386) -0.086
UBXN4 (UniProt Q92575) -0.087
VAMP2 (UniProt P63027) -0.044
UCK2 (UniProt Q9BZX2) 0.009
VAPA (UniProt Q9P0L0) -0.018
UGGT2 (UniProt Q9NYU1) -0.013
UROS (UniProt P10746) -0.038
USP16 (UniProt Q9Y5T5) 0
UPF2 (UniProt Q9HAU5) 0.018
USE1 (UniProt Q9NZ43) -0.084
UBL7 (UniProt Q96S82) -0.065
UROD (UniProt P06132) 0.014
UQCRFS1 (UniProt P47985) -0.047
URI1 (UniProt O94763) 0.03
USP10 isoform 2 (UniProt Q14694) 0.059
USP30 (UniProt Q70CQ3) -0.121
UBFD1 (UniProt O14562) -0.01

Quoted at random: 2 records from the list, in no set order.
log2 fold change, inactive:
UCHL3 (UniProt P15374) -0.008
VAMP8 (UniProt Q9BV40) -0.023

Source: the supplement of paper PMC10849652
